Data published in article PMC8597243.
These are yes or no findings as the source states them, for the method shown. In cells and extracts the contact can be indirect. For some assays here: A result given as binding can be weak or reduced; the word gives no strength. For some assays here: Tags and fused reporters may be left off the sequences shown.

Key:
NME3-FLAG (human) = molecular target: T1, NME3-FLAG (human) (UniProt Q13232); test: co-IP; MDA-MB-231T cells transiently transfected, lysate (TEEN buffer: 50 mM Tris pH 7.4, 0.5% NP40, 150 mM NaCl, 5 mM EDTA), 200 µg input; pull-down with FLAG-agarose, overnight at 4 °C; Western blot
T1 sequence: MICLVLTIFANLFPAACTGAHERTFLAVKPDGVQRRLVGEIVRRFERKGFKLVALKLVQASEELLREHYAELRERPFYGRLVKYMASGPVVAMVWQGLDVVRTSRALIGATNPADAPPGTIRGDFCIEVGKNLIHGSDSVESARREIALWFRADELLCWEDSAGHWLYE

NME4-FLAG (human) = molecular target: T2, NME4-FLAG (human) (UniProt O00746); test: as above
T2 sequence: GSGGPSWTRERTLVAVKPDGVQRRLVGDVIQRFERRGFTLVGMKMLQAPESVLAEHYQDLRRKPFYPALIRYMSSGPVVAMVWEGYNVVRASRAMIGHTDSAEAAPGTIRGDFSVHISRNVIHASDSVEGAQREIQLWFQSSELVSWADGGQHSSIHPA

[1] = molecular target: optic atrophy 1 (OPA1) (human (endogenous in MDA-MB-231T)); test: proximity ligation; in situ PLA (Duolink) on fixed, permeabilized MDA-MB-231T cells (Ctrl) or the clone KI-186-18 stably overexpressing NME6-186-FLAG; confocal microscopy
[2] = molecular target: endogenous NME6 (human (endogenous in MDA-MB-231T)); test: co-IP; MDA-MB-231T lysate (TEEN buffer: 50 mM Tris pH 7.4, 0.5% NP40, 150 mM NaCl, 5 mM EDTA), 200 µg input; anti-NME1, anti-NME6 or anti-RCC1L on Dynabeads protein G, overnight at 4 °C; Western blot

endogenous NME6 (human (endogenous in MDA-MB-231T))
binding (NME3-FLAG (human)): no binding | binding (NME4-FLAG (human)): no binding

B1: endogenous NME4 (protein, UniProt O00746 29-187)
chain: GSGGPSWTRERTLVAVKPDGVQRRLVGDVIQRFERRGFTLVGMKMLQAPESVLAEHYQDLRRKPFYPALIRYMSSGPVVAMVWEGYNVVRASRAMIGHTDSAEAAPGTIRGDFSVHISRNVIHASDSVEGAQREIQLWFQSSELVSWADGGQHSSIHPA
binding [1]: binds

B2: NME3-FLAG (protein, UniProt Q13232 1-169)
chain: MICLVLTIFANLFPAACTGAHERTFLAVKPDGVQRRLVGEIVRRFERKGFKLVALKLVQASEELLREHYAELRERPFYGRLVKYMASGPVVAMVWQGLDVVRTSRALIGATNPADAPPGTIRGDFCIEVGKNLIHGSDSVESARREIALWFRADELLCWEDSAGHWLYE
binding [2]: no binding

B3: NME4-FLAG (protein, UniProt O00746 29-187)
chain: GSGGPSWTRERTLVAVKPDGVQRRLVGDVIQRFERRGFTLVGMKMLQAPESVLAEHYQDLRRKPFYPALIRYMSSGPVVAMVWEGYNVVRASRAMIGHTDSAEAAPGTIRGDFSVHISRNVIHASDSVEGAQREIQLWFQSSELVSWADGGQHSSIHPA
binding [2]: no binding
